The values below come from publication PMC11194501.

Sequences of proteins named here, by UniProt entry; tags and fusion partners are left off. A change or cut given only in a name is not applied to a line headed by its entry.
UniProt P02550: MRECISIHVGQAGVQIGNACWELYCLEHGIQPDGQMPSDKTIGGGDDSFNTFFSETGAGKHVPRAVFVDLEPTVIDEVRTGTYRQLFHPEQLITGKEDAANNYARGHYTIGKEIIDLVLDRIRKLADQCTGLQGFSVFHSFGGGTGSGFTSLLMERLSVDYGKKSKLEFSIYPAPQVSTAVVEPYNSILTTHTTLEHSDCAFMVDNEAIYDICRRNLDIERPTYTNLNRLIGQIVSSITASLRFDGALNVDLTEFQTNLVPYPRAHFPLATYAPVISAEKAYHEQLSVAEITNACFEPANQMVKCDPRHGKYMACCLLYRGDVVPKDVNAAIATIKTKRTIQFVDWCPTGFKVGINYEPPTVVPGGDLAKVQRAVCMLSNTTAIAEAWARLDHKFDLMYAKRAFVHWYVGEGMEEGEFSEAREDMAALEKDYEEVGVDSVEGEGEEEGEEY

For the experiment, the target named is T1, Cep57S (Cep57 residues 56 to 264 fused to 334 to 433) (human) (UniProt Q86XR8).
T1 sequence: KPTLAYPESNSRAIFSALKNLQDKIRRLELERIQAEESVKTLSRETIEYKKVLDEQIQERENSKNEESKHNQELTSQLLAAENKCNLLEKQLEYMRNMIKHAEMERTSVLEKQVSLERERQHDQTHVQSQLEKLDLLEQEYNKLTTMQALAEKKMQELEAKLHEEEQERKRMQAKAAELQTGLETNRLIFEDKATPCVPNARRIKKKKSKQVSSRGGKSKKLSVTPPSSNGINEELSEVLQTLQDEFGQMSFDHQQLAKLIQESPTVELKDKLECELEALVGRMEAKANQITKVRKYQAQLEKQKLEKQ
Kind of experiment: pull-down; His-tagged Cep57S held on a Ni-NTA spin column, 0.1 mg α/β-tubulin added, 4 °C; 1X PBS pH 8.0, 1 mM 2-mercaptoethanol, 20 mM imidazole, 0.1% Triton X100, 10% glycerol; eluted with 400 mM imidazole, SDS-PAGE; both purified.

These are yes or no findings as the source states them, for the method shown. Some entries that bind do so weakly or less than the wild type. Tags and fused reporters may be left off the sequences shown.

In the case of “α/β-tubulin (from UniProt P02550 1-451; P02554 1-445) (complex)”, the binding entry is on record as “binds”.
